{"source": "patent US9340582B2", "about": "(NOVARTIS AG, priority 2013, dated 2016)", "key": {"[1]": {"assay": "general procedure: Fmoc solid-phase peptide synthesis; Rink-Amide-AM-PS resin", "details": "whole synthesis, scale 0.100 mmol, TFA salts; acetate salt by ion exchange"}, "[2]": {"assay": "general procedure: Fmoc solid-phase peptide synthesis; 2-chlorotrityl chloride-PS-resin (C-terminal acids); Fmoc Rink-Amide-AM-PS-resin (amides); BAL-AM-PS-resin loaded with a", "details": "late stage modification step, TFA salts; acetate salt by ion exchange"}}, "note": "Square brackets hold non-standard residues; d marks the D form. pGlu = O=C1CC[C@@H](C(=O)O)N1; Nle = CCCC[C@H](N)C(=O)O", "data": [{"substance": "[pGlu]RPRLCHKGP[Nle]CF-NH2 (cysteine pairing not given here)", "values": [{"measurement": "isolated mass", "setting": "[1]", "value": 50.5, "unit": "mg"}]}, {"substance": "[pGlu]RPRLCHKGP[Nle]CF-OH (cysteine pairing not given here)", "values": [{"measurement": "step yield", "setting": "[2]", "value": 13.4, "unit": "%"}]}, {"substance": "pE-R-P-R-L-C*-H-N^6-[[(1α,8α,9α)-bicyclo[6.1.0]non-4-yn-9-ylmethoxy]carbonyl]-K-G-P-Nle-C*-F-OH(Disulfide C^6-C^12)", "values": [{"measurement": "step yield", "setting": "[2]", "value": 61, "unit": "%"}]}]}
